Results are given in words; binding and its absence hold for the method and conditions named. In cells and extracts the contact can be indirect. Some results given as binding are weak or reduced against the parent protein; the word gives no strength. For some of these results: Where a sequence is shown, tags or fusion partners need not be part of it.
T1: Flag-JIP1 (UniProt Q9WVI9)
T1 sequence: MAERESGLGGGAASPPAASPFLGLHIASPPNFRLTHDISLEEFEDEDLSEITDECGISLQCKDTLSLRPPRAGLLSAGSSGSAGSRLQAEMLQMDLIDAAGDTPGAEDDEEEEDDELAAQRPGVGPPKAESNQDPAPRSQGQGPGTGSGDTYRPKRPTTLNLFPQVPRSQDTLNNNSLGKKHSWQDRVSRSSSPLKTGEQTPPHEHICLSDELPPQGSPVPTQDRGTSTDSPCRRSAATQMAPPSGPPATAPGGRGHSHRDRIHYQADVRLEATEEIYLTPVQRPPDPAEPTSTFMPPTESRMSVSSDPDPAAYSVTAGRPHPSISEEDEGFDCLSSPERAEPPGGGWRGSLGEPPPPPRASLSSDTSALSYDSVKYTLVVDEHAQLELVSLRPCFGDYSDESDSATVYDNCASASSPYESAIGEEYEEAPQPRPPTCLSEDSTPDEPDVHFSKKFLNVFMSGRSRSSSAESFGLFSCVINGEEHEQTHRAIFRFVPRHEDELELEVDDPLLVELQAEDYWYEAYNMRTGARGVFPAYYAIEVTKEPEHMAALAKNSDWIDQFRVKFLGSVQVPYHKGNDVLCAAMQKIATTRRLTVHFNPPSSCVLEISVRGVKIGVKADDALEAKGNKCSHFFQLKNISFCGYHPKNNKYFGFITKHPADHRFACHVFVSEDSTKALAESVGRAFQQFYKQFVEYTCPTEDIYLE

Chains of the proteins cited; added tags and fusions are not shown.
UniProt P33176: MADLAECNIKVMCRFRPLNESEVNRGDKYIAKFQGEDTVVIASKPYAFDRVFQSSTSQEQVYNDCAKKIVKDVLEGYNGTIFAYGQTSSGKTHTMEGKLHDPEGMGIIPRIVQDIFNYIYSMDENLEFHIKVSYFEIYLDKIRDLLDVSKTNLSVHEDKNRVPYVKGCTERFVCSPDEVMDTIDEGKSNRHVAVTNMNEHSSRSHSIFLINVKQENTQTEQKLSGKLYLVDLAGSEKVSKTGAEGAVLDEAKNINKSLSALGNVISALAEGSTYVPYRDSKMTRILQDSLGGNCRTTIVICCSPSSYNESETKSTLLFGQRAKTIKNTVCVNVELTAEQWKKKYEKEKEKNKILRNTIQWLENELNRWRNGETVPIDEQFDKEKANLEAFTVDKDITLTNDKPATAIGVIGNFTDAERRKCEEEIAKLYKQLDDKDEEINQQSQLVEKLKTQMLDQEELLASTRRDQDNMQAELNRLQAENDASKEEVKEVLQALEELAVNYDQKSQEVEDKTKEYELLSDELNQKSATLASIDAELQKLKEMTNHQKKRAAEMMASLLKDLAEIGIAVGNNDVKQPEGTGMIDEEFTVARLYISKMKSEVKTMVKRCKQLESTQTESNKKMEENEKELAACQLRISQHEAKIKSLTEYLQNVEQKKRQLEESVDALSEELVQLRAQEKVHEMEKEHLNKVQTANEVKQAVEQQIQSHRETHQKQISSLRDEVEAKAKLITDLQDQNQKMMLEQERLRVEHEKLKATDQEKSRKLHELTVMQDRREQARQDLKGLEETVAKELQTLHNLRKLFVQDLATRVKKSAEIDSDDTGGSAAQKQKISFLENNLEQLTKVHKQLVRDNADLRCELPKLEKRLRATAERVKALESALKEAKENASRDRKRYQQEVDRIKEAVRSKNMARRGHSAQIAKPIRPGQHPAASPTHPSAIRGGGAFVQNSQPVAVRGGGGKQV
UniProt Q9NZJ4: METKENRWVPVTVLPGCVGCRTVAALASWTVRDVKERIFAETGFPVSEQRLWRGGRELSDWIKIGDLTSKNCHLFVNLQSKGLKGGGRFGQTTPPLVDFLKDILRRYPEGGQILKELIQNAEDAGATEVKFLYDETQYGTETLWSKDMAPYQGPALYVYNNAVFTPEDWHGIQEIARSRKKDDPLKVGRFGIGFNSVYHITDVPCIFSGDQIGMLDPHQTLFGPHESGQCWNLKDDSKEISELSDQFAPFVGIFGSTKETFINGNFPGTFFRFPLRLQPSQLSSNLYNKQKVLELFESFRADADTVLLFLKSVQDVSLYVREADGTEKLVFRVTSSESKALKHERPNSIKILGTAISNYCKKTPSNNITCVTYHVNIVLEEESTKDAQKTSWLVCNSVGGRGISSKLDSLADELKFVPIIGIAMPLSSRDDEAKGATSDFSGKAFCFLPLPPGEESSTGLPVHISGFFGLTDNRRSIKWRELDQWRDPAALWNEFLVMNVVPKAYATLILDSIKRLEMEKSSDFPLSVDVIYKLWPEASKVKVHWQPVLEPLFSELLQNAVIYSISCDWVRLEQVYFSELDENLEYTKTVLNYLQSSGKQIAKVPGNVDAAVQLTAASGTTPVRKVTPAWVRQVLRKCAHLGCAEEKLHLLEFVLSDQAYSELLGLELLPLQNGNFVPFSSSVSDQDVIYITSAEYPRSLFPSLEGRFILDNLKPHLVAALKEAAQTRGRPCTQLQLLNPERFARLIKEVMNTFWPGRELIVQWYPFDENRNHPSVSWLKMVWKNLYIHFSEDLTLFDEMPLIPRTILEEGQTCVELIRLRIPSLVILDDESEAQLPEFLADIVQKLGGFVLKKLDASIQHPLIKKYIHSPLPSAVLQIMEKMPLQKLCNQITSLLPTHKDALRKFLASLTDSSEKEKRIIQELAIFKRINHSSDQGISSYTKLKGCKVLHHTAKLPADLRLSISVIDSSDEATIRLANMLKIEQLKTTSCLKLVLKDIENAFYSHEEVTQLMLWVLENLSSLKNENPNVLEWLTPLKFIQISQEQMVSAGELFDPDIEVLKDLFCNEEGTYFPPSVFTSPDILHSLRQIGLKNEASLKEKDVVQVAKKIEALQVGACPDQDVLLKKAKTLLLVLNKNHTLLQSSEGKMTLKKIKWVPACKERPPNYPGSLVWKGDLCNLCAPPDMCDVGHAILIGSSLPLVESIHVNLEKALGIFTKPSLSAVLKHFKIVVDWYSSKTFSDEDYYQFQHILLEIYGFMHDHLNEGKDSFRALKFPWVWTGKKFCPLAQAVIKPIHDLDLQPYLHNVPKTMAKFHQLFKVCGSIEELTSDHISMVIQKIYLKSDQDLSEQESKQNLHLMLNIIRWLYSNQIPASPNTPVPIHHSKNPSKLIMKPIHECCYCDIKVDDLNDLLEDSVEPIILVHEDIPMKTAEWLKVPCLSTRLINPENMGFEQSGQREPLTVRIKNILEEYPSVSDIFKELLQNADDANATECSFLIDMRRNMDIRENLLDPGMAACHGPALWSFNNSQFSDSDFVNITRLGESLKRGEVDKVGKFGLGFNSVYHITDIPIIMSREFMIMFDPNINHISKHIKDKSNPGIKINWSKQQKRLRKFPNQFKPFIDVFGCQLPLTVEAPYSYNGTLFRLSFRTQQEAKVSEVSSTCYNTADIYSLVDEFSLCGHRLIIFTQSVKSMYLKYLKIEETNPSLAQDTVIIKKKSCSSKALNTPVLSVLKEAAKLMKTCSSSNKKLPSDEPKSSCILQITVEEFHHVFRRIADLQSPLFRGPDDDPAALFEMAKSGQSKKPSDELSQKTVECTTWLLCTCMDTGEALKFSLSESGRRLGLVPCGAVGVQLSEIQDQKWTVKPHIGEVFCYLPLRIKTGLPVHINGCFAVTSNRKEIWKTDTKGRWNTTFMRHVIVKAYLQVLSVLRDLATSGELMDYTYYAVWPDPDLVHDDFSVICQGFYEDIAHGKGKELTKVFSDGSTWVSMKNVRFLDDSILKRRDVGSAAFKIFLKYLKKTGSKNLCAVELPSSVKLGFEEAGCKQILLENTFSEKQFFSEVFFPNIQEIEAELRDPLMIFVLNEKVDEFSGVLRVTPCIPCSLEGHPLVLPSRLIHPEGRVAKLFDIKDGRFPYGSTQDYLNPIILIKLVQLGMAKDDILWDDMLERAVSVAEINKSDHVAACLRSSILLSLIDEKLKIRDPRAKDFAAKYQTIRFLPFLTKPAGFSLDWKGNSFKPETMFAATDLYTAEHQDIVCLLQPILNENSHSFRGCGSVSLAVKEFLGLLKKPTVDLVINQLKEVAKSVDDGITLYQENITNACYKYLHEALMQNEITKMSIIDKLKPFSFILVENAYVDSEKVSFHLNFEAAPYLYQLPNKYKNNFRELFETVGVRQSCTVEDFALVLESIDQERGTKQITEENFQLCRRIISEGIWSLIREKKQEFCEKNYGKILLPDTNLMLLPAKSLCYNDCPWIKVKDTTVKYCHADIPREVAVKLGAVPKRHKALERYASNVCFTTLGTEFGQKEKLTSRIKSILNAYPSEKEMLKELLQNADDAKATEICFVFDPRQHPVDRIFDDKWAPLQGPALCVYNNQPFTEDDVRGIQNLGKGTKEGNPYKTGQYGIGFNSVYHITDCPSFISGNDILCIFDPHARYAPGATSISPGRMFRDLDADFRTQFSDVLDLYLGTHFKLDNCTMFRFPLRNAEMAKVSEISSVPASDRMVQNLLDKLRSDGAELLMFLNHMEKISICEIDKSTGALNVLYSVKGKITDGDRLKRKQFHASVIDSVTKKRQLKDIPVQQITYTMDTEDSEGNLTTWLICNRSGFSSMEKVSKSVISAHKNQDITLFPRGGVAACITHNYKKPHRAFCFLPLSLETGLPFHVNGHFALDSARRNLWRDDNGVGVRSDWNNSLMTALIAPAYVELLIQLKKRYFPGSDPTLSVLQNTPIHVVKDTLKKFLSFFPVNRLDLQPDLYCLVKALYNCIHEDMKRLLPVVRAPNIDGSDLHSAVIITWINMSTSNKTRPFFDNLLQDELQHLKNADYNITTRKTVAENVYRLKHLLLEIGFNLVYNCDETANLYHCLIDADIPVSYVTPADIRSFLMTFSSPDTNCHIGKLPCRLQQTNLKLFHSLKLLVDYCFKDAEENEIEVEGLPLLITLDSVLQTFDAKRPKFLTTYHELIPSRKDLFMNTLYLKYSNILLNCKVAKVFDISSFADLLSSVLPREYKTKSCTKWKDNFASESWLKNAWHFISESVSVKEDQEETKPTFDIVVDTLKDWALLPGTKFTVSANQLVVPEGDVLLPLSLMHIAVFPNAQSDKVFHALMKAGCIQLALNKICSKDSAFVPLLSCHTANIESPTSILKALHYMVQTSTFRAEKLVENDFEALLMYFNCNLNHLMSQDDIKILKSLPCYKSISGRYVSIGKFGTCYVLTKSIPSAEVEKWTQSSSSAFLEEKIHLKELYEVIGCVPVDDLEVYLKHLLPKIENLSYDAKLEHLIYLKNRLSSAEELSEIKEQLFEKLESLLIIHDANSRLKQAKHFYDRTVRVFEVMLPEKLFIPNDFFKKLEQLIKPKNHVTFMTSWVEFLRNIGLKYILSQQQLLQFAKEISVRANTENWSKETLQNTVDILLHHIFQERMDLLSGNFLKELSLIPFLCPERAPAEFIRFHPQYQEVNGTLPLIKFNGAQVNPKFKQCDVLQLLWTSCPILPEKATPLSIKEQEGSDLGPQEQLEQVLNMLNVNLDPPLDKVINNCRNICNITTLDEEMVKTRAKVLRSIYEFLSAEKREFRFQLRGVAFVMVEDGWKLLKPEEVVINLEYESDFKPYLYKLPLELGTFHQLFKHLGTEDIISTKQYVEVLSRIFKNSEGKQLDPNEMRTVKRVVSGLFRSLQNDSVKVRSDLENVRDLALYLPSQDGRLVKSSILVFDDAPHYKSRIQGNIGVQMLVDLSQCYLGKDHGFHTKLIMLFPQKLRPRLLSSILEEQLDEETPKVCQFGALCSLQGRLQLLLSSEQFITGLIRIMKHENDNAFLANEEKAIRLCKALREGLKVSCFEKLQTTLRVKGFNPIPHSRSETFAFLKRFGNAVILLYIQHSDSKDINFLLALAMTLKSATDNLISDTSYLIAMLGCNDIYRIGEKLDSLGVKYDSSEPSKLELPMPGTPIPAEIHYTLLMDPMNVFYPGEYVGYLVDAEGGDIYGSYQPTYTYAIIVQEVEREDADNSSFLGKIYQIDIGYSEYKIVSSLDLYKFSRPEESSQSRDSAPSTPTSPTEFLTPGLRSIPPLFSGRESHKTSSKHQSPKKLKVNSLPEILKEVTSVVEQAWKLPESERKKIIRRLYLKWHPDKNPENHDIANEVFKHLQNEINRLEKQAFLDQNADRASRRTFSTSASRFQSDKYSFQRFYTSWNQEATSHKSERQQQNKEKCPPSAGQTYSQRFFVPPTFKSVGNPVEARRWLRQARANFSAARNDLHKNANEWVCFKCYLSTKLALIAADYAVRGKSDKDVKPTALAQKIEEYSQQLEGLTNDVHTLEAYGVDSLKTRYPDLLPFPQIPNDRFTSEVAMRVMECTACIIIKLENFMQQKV

T2: Flag-JIP2 (UniProt Q9ERE9)
T2 sequence: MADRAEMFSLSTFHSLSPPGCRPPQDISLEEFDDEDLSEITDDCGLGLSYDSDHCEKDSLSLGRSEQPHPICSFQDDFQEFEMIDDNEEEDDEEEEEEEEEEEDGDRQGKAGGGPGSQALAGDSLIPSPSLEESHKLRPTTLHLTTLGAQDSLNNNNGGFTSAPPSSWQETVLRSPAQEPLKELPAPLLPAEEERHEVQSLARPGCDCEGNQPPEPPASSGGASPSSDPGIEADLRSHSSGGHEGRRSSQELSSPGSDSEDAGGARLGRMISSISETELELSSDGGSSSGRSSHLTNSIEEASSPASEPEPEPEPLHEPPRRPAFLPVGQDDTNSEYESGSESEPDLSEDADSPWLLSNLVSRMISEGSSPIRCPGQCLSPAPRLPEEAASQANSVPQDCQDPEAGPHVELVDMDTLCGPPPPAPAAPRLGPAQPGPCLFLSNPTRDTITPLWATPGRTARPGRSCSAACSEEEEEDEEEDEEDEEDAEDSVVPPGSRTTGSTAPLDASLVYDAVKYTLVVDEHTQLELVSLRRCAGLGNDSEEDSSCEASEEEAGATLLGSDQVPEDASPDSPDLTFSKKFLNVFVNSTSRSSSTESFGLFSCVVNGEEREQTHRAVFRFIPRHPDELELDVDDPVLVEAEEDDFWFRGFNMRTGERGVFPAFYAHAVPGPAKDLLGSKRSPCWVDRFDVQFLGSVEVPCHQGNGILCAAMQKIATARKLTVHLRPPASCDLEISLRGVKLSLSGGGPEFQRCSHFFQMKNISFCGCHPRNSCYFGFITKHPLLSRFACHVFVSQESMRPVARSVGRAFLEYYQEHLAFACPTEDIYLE

B1: JIP3 (C-jun-amino-terminal kinase-interacting protein 3), endogenous, mouse brain (protein, UniProt Q9ESN9 1-1337)
chain: MMEIQMDEGGGVVVYQDDYCSGSVMSERVSGLAGSIYREFERLIHCYDEEVVKELMPLVVNVLENLDSVLSENQEHEVELELLREDNEQLLTQYEREKALRKQAEEKFIEFEDALEQEKKELQIQVEHYEFQTRQLELKAKNYADQISRLEERESEMKKEYNALHQRHTEMIQTYVEHIERSKMQQVGGSGQTESSLPGRSRKERPTSLNVFPLADGMVRAQMGGKLVPAGDHWHLSDLGQLQSSSSYQCPNDEMSESGQSSAAATPSTTGTKSNTPTSSVPSAAVTPLNESLQPLGDYVSVTKNNKQAREKRNSRNMEVQVTQEMRNVSIGMGSSDEWSDVQDIIDSTPELDVCPETRLERTGSSPTQGIVNKAFGINTDSLYHELSTAGSEVIGDVDEGADLLGEFSVRDDFFGMGKEVGNLLLENSQLLETKNALNVVKNDLIAKVDQLSGEQEVLKGELEAAKQAKVKLENRIKELEEELKRVKSEAVTARREPREEVEDVSSYLCTELDKIPMAQRRRFTRVEMARVLMERNQYKERLMELQEAVRWTEMIRASREHPSVQEKKKSTIWQFFSRLFSSSSSPPPAKRSYPSVNIHYKSPTAAGFSQRRSHALCQISAGSRPLEFFPDDDCTSSARREQKREQYRQVREHVRNDDGRLQACGWSLPAKYKQLSPNGGQEDTRMKNVPVPVYCRPLVEKDPSTKLWCAAGVNLSGWKPHEEDSSNGPKPVPGRDPLTCDREGEGEPKSTHPSPEKKKAKETPEADATSSRVWILTSTLTTSKVVIIDANQPGTIVDQFTVCNAHVLCISSIPAASDSDYPPGEMFLDSDVNPEDSGADGVLAGITLVGCATRCNVPRSNCSSRGDTPVLDKGQGDVATTANGKVNPSQSTEEATEATEVPDPGPSESEATTVRPGPLTEHVFTDPAPTPSSSTQPASENGSESNGTIVQPQVEPSGELSTTTSSAAPTMWLGAQNGWLYVHSAVANWKKCLHSIKLKDSVLSLVHVKGRVLVALADGTLAIFHRGEDGQWDLSNYHLMDLGHPHHSIRCMAVVNDRVWCGYKNKVHVIQPKTMQIEKSFDAHPRRESQVRQLAWIGDGVWVSIRLDSTLRLYHAHTHQHLQDVDIEPYVSKMLGTGKLGFSFVRITALLIAGNRLWVGTGNGVVISIPLTETVVLHRGQLLGLRANKTSPTSGEGTRPGGIIHVYGDDSSDKAASSFIPYCSMAQAQLCFHGHRDAVKFFVSVPGNVLATLNGSVLDSPSEGPGPAAPAADAEGQKLKNALVLSGGEGYIDFRIGDGEDDETEECAGDVNQTKPSLSKAERSHIIVWQVSYTPE

How the values were obtained:
[1] = target: Kinesin-5B-GFP (UniProt P33176); experiment: co-IP; lysates of HEK-293 cells transfected with Kinesin-5B-GFP or ARL-8-GFP; immunoprecipitation with anti-GFP antibody; blot for endogenous sacsin and GFP
[2] = target: T1, Flag-JIP1; experiment: co-IP; lysates of HEK-293 cells transfected with Flag-JIP1, 2, 3 or 4; immunoprecipitation with anti-Flag antibody; blot for Flag and endogenous sacsin; lysis buffer 20 mM Hepes, 150 mM NaCl, 1 mM DTT, 1% Triton-X-100
[3] = target: T2, Flag-JIP2; experiment: as above
[4] = target: sacsin (endogenous, mouse brain) (mouse (endogenous in mouse brain)) (UniProt Q9JLC8); experiment: co-IP; mouse brain lysate; immunoprecipitation with sacsin antibody; blot for JIP3 and sacsin

Row | Molecule | binding [1] | binding [2] | binding [3] | binding [4]
1 | sacsin (endogenous, HEK-293 cells) (from UniProt Q9NZJ4 1-4579) | binds | no binding | no binding | 
2 | B1 |  |  |  | binds

Reference: publication PMC9437860
